Measurements reported in the supplement of paper PMC12823440, “Inhibitors supercharge kinase turnover through native proteolytic circuits” (Nature, 2025).
Where a name gives a salt, the structure may show the parent alone. Some of the results follow. The calls rarely recur for the same compound in another form.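 Kinases were expressed as nanoluciferase fusions in K562 cells and luminescence was read every 4 h between 2 and 18 h as percent of control, DMSO set to 100% and a positive control to 0%. A time point counts as decreased when the signal drops significantly (2 sigma). The hit call is the authors' own, does not follow from the count of time points alone, and its rule is not shown.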

Sequences of proteins named here, by UniProt entry; tags and fusion partners are left off. A change or cut given only in a name is not applied to a line headed by its entry.
UniProt P50613: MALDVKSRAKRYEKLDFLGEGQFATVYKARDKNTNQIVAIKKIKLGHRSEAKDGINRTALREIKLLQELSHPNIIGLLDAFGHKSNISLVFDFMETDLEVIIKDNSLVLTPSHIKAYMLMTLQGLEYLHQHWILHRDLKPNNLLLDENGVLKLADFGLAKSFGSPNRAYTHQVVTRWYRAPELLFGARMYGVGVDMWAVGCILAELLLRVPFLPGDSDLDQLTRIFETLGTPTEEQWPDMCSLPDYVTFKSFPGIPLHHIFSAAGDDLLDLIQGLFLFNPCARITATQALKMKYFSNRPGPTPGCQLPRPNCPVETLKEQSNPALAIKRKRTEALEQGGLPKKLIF
UniProt P50750, whole entry: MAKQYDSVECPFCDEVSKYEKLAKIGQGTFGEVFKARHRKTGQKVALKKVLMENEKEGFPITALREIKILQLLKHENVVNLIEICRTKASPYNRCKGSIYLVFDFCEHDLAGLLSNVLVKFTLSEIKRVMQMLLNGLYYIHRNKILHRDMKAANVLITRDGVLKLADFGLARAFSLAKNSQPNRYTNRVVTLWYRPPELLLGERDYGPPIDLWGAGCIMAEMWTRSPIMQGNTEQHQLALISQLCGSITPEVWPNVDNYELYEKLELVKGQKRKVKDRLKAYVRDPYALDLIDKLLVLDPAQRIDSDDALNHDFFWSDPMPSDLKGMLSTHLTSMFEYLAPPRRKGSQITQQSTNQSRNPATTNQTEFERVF
UniProt O96017, whole entry: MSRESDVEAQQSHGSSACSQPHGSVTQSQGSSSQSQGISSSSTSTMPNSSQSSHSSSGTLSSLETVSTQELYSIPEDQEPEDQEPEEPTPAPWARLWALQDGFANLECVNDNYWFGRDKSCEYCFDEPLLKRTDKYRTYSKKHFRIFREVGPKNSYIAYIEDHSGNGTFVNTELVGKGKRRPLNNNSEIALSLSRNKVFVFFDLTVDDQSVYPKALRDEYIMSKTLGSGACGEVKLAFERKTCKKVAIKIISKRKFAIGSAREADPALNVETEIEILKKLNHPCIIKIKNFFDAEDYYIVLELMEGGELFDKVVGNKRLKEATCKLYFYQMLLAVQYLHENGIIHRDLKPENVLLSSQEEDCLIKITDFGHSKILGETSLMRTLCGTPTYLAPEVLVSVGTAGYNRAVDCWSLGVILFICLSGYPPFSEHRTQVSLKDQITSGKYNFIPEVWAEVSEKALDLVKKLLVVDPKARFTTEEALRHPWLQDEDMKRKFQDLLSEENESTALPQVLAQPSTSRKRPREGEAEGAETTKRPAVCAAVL
UniProt P41240: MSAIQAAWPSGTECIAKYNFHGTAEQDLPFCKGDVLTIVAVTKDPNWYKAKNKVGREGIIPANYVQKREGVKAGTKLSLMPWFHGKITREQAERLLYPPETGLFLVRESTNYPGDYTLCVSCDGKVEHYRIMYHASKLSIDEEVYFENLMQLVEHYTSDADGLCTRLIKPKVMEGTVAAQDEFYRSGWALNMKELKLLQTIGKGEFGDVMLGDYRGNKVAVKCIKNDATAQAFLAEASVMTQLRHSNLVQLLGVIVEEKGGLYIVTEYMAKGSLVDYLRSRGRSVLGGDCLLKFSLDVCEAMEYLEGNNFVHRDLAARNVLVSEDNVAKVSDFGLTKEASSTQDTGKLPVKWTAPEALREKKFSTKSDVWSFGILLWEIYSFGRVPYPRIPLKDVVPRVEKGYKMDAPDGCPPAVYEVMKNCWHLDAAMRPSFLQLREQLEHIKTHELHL
UniProt P48729: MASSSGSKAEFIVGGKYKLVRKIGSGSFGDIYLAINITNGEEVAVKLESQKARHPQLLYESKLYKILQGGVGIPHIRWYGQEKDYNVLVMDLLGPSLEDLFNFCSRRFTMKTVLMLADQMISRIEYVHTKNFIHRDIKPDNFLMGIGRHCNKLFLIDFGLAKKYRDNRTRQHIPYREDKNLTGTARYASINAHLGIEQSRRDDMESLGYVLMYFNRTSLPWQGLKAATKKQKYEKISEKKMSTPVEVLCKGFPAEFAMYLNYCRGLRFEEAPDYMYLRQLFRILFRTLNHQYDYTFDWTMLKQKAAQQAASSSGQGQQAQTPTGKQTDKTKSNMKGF
UniProt P48730: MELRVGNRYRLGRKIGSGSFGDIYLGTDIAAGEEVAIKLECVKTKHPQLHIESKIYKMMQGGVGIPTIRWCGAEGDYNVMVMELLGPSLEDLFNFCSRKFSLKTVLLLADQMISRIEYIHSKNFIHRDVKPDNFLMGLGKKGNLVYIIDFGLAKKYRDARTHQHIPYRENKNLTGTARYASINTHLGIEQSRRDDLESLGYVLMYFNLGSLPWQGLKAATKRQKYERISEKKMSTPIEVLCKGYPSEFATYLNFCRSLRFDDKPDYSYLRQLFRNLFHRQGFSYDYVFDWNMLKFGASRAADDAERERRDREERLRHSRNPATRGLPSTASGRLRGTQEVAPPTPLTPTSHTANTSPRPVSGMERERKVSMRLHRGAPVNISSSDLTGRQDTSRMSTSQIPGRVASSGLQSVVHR
UniProt P29317, whole entry: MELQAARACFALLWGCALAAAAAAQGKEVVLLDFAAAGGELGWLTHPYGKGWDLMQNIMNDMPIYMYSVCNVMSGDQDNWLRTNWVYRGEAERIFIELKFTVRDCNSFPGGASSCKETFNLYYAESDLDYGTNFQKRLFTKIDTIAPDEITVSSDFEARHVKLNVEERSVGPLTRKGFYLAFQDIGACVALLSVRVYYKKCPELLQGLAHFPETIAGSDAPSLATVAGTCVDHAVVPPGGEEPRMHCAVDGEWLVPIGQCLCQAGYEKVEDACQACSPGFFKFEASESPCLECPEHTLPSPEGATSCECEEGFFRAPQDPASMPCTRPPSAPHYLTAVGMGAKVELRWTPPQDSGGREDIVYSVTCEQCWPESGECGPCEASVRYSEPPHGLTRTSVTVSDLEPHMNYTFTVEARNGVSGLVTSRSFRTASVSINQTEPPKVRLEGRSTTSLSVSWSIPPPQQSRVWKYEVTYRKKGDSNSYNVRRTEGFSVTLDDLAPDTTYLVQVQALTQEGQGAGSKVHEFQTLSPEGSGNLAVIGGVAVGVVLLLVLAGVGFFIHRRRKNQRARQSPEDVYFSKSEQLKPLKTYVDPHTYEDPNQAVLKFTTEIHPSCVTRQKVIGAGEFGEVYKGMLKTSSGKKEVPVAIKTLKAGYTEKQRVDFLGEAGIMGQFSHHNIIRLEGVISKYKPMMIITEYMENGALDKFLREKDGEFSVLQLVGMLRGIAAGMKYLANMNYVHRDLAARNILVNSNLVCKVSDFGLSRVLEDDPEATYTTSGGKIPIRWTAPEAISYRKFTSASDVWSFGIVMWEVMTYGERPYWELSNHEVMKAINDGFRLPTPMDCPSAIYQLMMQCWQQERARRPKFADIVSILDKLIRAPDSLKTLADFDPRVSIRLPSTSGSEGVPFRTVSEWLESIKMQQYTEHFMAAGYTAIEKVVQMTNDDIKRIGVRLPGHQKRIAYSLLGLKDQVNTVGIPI
UniProt P21860, whole entry: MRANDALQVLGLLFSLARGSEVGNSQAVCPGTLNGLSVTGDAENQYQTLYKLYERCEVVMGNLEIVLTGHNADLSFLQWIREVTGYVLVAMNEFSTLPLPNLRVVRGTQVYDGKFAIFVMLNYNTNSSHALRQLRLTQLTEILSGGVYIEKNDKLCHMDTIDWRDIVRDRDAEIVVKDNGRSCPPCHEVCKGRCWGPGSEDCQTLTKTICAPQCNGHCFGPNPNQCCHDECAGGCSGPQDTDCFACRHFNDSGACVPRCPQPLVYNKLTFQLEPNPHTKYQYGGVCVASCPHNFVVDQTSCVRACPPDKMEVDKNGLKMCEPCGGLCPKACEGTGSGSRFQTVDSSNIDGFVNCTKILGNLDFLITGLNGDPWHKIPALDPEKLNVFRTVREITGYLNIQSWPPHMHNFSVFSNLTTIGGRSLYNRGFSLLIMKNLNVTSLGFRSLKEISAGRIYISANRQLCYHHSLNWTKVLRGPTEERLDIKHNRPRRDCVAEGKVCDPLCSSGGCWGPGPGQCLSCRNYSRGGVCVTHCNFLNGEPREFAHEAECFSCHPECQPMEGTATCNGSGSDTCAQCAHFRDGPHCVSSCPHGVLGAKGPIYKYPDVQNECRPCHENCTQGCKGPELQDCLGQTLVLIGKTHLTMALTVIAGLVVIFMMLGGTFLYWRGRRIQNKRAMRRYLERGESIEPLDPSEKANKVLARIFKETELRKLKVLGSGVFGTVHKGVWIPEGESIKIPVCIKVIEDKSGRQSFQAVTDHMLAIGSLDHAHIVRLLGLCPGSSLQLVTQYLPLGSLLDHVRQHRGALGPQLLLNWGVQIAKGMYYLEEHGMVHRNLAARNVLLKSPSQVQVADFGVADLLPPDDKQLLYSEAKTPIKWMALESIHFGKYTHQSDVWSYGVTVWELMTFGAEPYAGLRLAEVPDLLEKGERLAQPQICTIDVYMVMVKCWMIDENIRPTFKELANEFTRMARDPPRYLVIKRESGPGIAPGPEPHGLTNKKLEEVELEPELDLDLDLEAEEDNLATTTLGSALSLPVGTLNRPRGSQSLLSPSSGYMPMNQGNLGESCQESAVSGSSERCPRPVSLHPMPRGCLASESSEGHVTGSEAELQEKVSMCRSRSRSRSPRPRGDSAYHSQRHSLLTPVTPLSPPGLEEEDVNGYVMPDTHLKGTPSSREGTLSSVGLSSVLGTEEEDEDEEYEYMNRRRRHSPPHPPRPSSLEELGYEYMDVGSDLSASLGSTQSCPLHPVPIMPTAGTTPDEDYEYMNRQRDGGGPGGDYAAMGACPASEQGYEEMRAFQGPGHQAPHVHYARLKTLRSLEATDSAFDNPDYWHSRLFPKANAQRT
UniProt Q15303, whole entry R711C: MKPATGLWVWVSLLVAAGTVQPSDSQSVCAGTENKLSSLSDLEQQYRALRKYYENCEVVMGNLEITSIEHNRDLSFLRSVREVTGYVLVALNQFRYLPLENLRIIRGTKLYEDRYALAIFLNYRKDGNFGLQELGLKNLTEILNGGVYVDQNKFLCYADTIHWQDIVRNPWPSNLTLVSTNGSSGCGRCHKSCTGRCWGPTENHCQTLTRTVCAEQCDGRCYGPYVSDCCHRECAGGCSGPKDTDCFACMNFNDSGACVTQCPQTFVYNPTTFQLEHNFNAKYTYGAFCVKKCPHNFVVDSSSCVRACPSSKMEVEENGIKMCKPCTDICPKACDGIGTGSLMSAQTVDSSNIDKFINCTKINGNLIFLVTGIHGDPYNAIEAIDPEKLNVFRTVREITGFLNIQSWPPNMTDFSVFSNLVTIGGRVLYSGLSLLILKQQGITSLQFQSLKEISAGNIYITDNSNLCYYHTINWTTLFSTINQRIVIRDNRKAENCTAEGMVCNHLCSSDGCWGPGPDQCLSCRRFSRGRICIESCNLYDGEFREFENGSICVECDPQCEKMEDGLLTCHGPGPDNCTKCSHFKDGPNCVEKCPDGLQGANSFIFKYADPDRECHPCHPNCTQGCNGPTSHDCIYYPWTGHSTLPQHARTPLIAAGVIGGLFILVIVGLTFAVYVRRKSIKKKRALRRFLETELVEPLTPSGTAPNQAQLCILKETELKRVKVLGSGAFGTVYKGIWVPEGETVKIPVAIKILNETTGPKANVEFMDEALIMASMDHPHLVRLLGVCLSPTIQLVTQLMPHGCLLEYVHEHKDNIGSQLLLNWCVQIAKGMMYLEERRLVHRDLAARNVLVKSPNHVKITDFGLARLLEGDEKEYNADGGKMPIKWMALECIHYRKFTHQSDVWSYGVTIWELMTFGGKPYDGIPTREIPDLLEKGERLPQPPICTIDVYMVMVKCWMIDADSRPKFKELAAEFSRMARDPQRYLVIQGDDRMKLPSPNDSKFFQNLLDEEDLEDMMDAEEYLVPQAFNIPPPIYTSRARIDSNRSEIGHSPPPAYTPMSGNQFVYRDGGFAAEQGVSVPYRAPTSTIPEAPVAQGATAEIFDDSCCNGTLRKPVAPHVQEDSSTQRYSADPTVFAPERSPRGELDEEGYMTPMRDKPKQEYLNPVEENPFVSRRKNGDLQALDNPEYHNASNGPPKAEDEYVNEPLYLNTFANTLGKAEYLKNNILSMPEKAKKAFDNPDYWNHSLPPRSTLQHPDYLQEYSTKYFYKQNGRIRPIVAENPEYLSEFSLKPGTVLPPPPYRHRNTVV

Tests used:
Test in all cases: kinase-Nluc reporter destabilization hit call (1 = scored as downregulated) (binary); higher = compound decreases kinase abundance
Conditions in all cases: K562; 2-18 h
CDK7 = CDK7 (UniProt P50613)
CDK9 = CDK9 (UniProt P50750)
CHEK2 = CHEK2 (UniProt O96017)
CSF1R = CSF1R (UniProt P07333)
CSK = CSK (UniProt P41240)
CSNK1A1 = CSNK1A1 (UniProt P48729)
CSNK1D = CSNK1D (UniProt P48730)
DDR1 = DDR1 (UniProt Q08345)
DYRK1B = DYRK1B (UniProt Q9Y463)
DYRK2 = DYRK2 (UniProt Q92630)
EGFR = EGFR (UniProt P00533)
EGFR_G719S = EGFR_G719S (UniProt P00533)
EGFR_G719S_T790M = EGFR_G719S_T790M (UniProt P00533)
EGFR_L718V = EGFR_L718V (UniProt P00533)
EGFR_L858R = EGFR_L858R (UniProt P00533)
EGFR_L861Q = EGFR_L861Q (UniProt P00533)
EGFR_T790M = EGFR_T790M (UniProt P00533)
EPHA2 = EPHA2 (UniProt P29317)
ERBB3 = ERBB3 (UniProt P21860)
[1] = target: ERBB4_R711C (clone: ERBB4_mut) (UniProt Q15303)

Measured: kinase-Nluc reporter destabilization hit call

c1nc2c(NC3CCCCC3)nc(Nc3ccc(N4CCOCC4)cc3)nc2[nH]1 [Reversine] (10 µM)
inactive: CDK7 = 0 | CDK9 = 0 | CHEK2 = 0 | CSF1R 0 | CSK 0 | CSNK1A1 = 0 | CSNK1D 0 | DDR1 = 0 | DYRK1B 0 | DYRK2 = 0 | EGFR 0 | EGFR_G719S 0 | EGFR_G719S_T790M 0 | EGFR_L718V 0 | EGFR_L858R 0 | EGFR_L861Q 0 | EGFR_T790M 0 | EPHA2 = 0 | ERBB3 = 0 | [1] 0

NC(=O)c1ccc(N(C(N)=O)c2c(F)cccc2F)nc1-c1ccc(F)cc1F (10 µM)
inactive: CDK7 = 0 | CDK9 = 0 | CHEK2 = 0 | CSF1R 0 | CSK 0 | CSNK1A1 = 0 | CSNK1D 0 | DDR1 = 0 | DYRK1B 0 | DYRK2 = 0 | EGFR 0 | EGFR_G719S 0 | EGFR_G719S_T790M 0 | EGFR_L718V 0 | EGFR_L858R 0 | EGFR_L861Q 0 | EGFR_T790M 0 | EPHA2 = 0 | ERBB3 = 0 | [1] 0

CC(C)n1ncnc1-c1cn2c(n1)-c1ccc(O[C@@H](C)C(N)=O)cc1OCC2 (10 µM)
inactive: CDK7 = 0 | CDK9 = 0 | CHEK2 = 0 | CSF1R 0 | CSK 0 | CSNK1A1 = 0 | CSNK1D 0 | DDR1 = 0 | DYRK1B 0 | DYRK2 = 0 | EGFR 0 | EGFR_G719S 0 | EGFR_G719S_T790M 0 | EGFR_L718V 0 | EGFR_L858R 0 | EGFR_L861Q 0 | EGFR_T790M 0 | EPHA2 = 0 | ERBB3 = 0 | [1] 0

Nc1nc(N)c2nc(-c3cccc(O)c3)c(-c3cccc(O)c3)nc2n1 (10 µM)
inactive: CDK7 = 0 | CDK9 = 0 | CHEK2 = 0 | CSF1R 0 | CSK 0 | CSNK1A1 = 0 | CSNK1D 0 | DDR1 = 0 | DYRK1B 0 | DYRK2 = 0 | EGFR 0 | EGFR_G719S 0 | EGFR_G719S_T790M 0 | EGFR_L718V 0 | EGFR_L858R 0 | EGFR_L861Q 0 | EGFR_T790M 0 | EPHA2 = 0 | ERBB3 = 0 | [1] 0

CC(O)(C#Cc1ccc2c(c1)N(c1nc(N)ncc1Cl)CC2)c1nccs1 (stereo not given) (2.5 µM)
inactive: CDK7 = 0 | CDK9 = 0 | CHEK2 = 0 | CSF1R 0 | CSK 0 | CSNK1A1 = 0 | CSNK1D 0 | DDR1 = 0 | DYRK1B 0 | DYRK2 = 0 | EGFR 0 | EGFR_G719S 0 | EGFR_G719S_T790M 0 | EGFR_L718V 0 | EGFR_L858R 0 | EGFR_L861Q 0 | EGFR_T790M 0 | EPHA2 = 0 | ERBB3 = 0 | [1] 0

O=c1cc(N2CCOCC2)oc2c(-c3ccc4c(c3)OCCO4)csc12 (2.5 µM)
inactive: CDK7 = 0 | CDK9 = 0 | CHEK2 = 0 | CSF1R 0 | CSK 0 | CSNK1A1 = 0 | CSNK1D 0 | DDR1 = 0 | DYRK1B 0 | DYRK2 = 0 | EGFR 0 | EGFR_G719S 0 | EGFR_G719S_T790M 0 | EGFR_L718V 0 | EGFR_L858R 0 | EGFR_L861Q 0 | EGFR_T790M 0 | EPHA2 = 0 | ERBB3 = 0 | [1] 0

COc1ccc2c3n(c(=NC(=O)c4cccnc4)nc2c1OC)CCN3 (2 µM)
inactive: CDK7 = 0 | CDK9 = 0 | CHEK2 = 0 | CSF1R 0 | CSK 0 | CSNK1A1 = 0 | CSNK1D 0 | DDR1 = 0 | DYRK1B 0 | DYRK2 = 0 | EGFR 0 | EGFR_G719S 0 | EGFR_G719S_T790M 0 | EGFR_L718V 0 | EGFR_L858R 0 | EGFR_L861Q 0 | EGFR_T790M 0 | EPHA2 = 0 | ERBB3 = 0 | [1] 0

COC(=O)[C@H](CCSC)NC(=O)c1ccc(NC[C@@H](N)CS)cc1-c1ccccc1 [FTI-277 (hydrochloride)] (10 µM)
inactive: CDK7 = 0 | CDK9 = 0 | CHEK2 = 0 | CSF1R 0 | CSK 0 | CSNK1A1 = 0 | CSNK1D 0 | DDR1 = 0 | DYRK1B 0 | DYRK2 = 0 | EGFR 0 | EGFR_G719S 0 | EGFR_G719S_T790M 0 | EGFR_L718V 0 | EGFR_L858R 0 | EGFR_L861Q 0 | EGFR_T790M 0 | EPHA2 = 0 | ERBB3 = 0 | [1] 0

Cc1cc(C(=O)NC(C)(C)C)cc(C#Cc2ccc3c4c(oc3c2)C(C)(C)c2cc(NS(C)(=O)=O)ccc2C4=O)n1 (10 µM)
inactive: CDK7 = 0 | CDK9 = 0 | CHEK2 = 0 | CSF1R 0 | CSK 0 | CSNK1A1 = 0 | CSNK1D 0 | DDR1 = 0 | DYRK1B 0 | DYRK2 = 0 | EGFR 0 | EGFR_G719S 0 | EGFR_G719S_T790M 0 | EGFR_L718V 0 | EGFR_L858R 0 | EGFR_L861Q 0 | EGFR_T790M 0 | EPHA2 = 0 | ERBB3 = 0 | [1] 0

Cc1c(Cl)cccc1S(=O)(=O)Nc1nc(NCCc2ccccc2)nc2c1CN(Cc1ccccc1)CC2 (2.5 µM)
inactive: CDK7 = 0 | CDK9 = 0 | CHEK2 = 0 | CSF1R 0 | CSK 0 | CSNK1A1 = 0 | CSNK1D 0 | DDR1 = 0 | DYRK1B 0 | DYRK2 = 0 | EGFR 0 | EGFR_G719S 0 | EGFR_G719S_T790M 0 | EGFR_L718V 0 | EGFR_L858R 0 | EGFR_L861Q 0 | EGFR_T790M 0 | EPHA2 = 0 | ERBB3 = 0 | [1] 0

Cc1cc(Nc2cc(N3CCN(C)CC3)nc(Nc3ccc([N+](=O)[O-])cc3)n2)n[nH]1 (2.5 µM)
inactive: CDK7 = 0 | CDK9 = 0 | CHEK2 = 0 | CSF1R 0 | CSK 0 | CSNK1A1 = 0 | CSNK1D 0 | DDR1 = 0 | DYRK1B 0 | DYRK2 = 0 | EGFR 0 | EGFR_G719S 0 | EGFR_G719S_T790M 0 | EGFR_L718V 0 | EGFR_L858R 0 | EGFR_L861Q 0 | EGFR_T790M 0 | EPHA2 = 0 | ERBB3 = 0 | [1] 0

2 entries picked at random from those above, as already listed:
Cc1c(Cl)cccc1S(=O)(=O)Nc1nc(NCCc2ccccc2)nc2c1CN(Cc1ccccc1)CC2 (2.5 µM)
inactive: CDK7 = 0 | CDK9 = 0 | CHEK2 = 0 | CSF1R 0 | CSK 0 | CSNK1A1 = 0 | CSNK1D 0 | DDR1 = 0 | DYRK1B 0 | DYRK2 = 0 | EGFR 0 | EGFR_G719S 0 | EGFR_G719S_T790M 0 | EGFR_L718V 0 | EGFR_L858R 0 | EGFR_L861Q 0 | EGFR_T790M 0 | EPHA2 = 0 | ERBB3 = 0 | [1] 0

COc1ccc2c3n(c(=NC(=O)c4cccnc4)nc2c1OC)CCN3 (2 µM)
inactive: CDK7 = 0 | CDK9 = 0 | CHEK2 = 0 | CSF1R 0 | CSK 0 | CSNK1A1 = 0 | CSNK1D 0 | DDR1 = 0 | DYRK1B 0 | DYRK2 = 0 | EGFR 0 | EGFR_G719S 0 | EGFR_G719S_T790M 0 | EGFR_L718V 0 | EGFR_L858R 0 | EGFR_L861Q 0 | EGFR_T790M 0 | EPHA2 = 0 | ERBB3 = 0 | [1] 0

(list continues)

Nc1nccc(-c2c(-c3ccc(F)cc3)ncn2C2CCCCC2)n1 (10 µM)
inactive: CDK7 = 0 | CDK9 = 0 | CHEK2 = 0 | CSF1R 0 | CSK 0 | CSNK1A1 = 0 | CSNK1D 0 | DDR1 = 0 | DYRK1B 0 | DYRK2 = 0 | EGFR 0 | EGFR_G719S 0 | EGFR_G719S_T790M 0 | EGFR_L718V 0 | EGFR_L858R 0 | EGFR_L861Q 0 | EGFR_T790M 0 | EPHA2 = 0 | ERBB3 = 0 | [1] 0

C#Cc1cccc(Nc2ncnc3cc(OC)c(NC(=O)N4C[C@H]5CCN(C)[C@H]5C4)cc23)c1 [Theliatinib] (10 µM)
inactive: CDK7 = 0 | CDK9 = 0 | CHEK2 = 0 | CSF1R 0 | CSK 0 | CSNK1A1 = 0 | CSNK1D 0 | DDR1 = 0 | DYRK1B 0 | DYRK2 = 0 | EGFR 0 | EGFR_G719S 0 | EGFR_G719S_T790M 0 | EGFR_L718V 0 | EGFR_L858R 0 | EGFR_L861Q 0 | EGFR_T790M 0 | EPHA2 = 0 | ERBB3 = 0 | [1] 0

COc1ccc(S(=O)(=O)Nc2cc(-c3c(O)ccc4ccccc34)c(O)c3ccccc23)cc1 (10 µM)
inactive: CDK7 = 0 | CDK9 = 0 | CHEK2 = 0 | CSF1R 0 | CSK 0 | CSNK1A1 = 0 | CSNK1D 0 | DDR1 = 0 | DYRK1B 0 | DYRK2 = 0 | EGFR 0 | EGFR_G719S 0 | EGFR_G719S_T790M 0 | EGFR_L718V 0 | EGFR_L858R 0 | EGFR_L861Q 0 | EGFR_T790M 0 | EPHA2 = 0 | ERBB3 = 0 | [1] 0

COc1cc(N2CCC(N3CCN(C)CC3)CC2)ccc1Nc1ncc(Cl)c(-c2c[nH]c3ccccc23)n1 (2.5 µM)
inactive: CDK7 = 0 | CDK9 = 0 | CHEK2 = 0 | CSF1R 0 | CSK 0 | CSNK1A1 = 0 | CSNK1D 0 | DDR1 = 0 | DYRK1B 0 | DYRK2 = 0 | EGFR 0 | EGFR_G719S 0 | EGFR_G719S_T790M 0 | EGFR_L718V 0 | EGFR_L858R 0 | EGFR_L861Q 0 | EGFR_T790M 0 | EPHA2 = 0 | ERBB3 = 0 | [1] 0

CCCCCc1ccc(/C=C/[C@H](O)[C@@H](CO)NC)cc1 [SK1-I (hydrochloride)] (10 µM)
inactive: CDK7 = 0 | CDK9 = 0 | CHEK2 = 0 | CSF1R 0 | CSK 0 | CSNK1A1 = 0 | CSNK1D 0 | DDR1 = 0 | DYRK1B 0 | DYRK2 = 0 | EGFR 0 | EGFR_G719S 0 | EGFR_G719S_T790M 0 | EGFR_L718V 0 | EGFR_L858R 0 | EGFR_L861Q 0 | EGFR_T790M 0 | EPHA2 = 0 | ERBB3 = 0 | [1] 0

C=CC(=O)Nc1cccc(Oc2nc(Nc3ccc(N4CCN(C)CC4)c(F)c3)nc3[nH]ccc23)c1 [Avitinib (maleate)] (2.5 µM)
inactive: CDK7 = 0 | CDK9 = 0 | CHEK2 = 0 | CSF1R 0 | CSK 0 | CSNK1A1 = 0 | CSNK1D 0 | DDR1 = 0 | DYRK1B 0 | DYRK2 = 0 | EGFR 0 | EGFR_G719S 0 | EGFR_G719S_T790M 0 | EGFR_L718V 0 | EGFR_L858R 0 | EGFR_L861Q 0 | EGFR_T790M 0 | EPHA2 = 0 | ERBB3 = 0 | [1] 0

Cc1cc(C(=O)Nc2nc3cccc(Cl)c3n2[C@@H]2CCCCN(C(=O)/C=C/CN(C)C)C2)ccn1 [Nazartinib] (10 µM)
inactive: CDK7 = 0 | CDK9 = 0 | CHEK2 = 0 | CSF1R 0 | CSK 0 | CSNK1A1 = 0 | CSNK1D 0 | DDR1 = 0 | DYRK1B 0 | DYRK2 = 0 | EGFR 0 | EGFR_G719S 0 | EGFR_G719S_T790M 0 | EGFR_L718V 0 | EGFR_L858R 0 | EGFR_L861Q 0 | EGFR_T790M 0 | EPHA2 = 0 | ERBB3 = 0 | [1] 0
